Results as given in paper PMC9534967.
These are yes or no findings as the source states them, for the method shown. Binding seen in cells or lysates may run through a third protein. Some results given as binding are weak or reduced against the parent protein; the word gives no strength.

By UniProt entry, the sequences of proteins in these tests, tags left out.
UniProt O14727: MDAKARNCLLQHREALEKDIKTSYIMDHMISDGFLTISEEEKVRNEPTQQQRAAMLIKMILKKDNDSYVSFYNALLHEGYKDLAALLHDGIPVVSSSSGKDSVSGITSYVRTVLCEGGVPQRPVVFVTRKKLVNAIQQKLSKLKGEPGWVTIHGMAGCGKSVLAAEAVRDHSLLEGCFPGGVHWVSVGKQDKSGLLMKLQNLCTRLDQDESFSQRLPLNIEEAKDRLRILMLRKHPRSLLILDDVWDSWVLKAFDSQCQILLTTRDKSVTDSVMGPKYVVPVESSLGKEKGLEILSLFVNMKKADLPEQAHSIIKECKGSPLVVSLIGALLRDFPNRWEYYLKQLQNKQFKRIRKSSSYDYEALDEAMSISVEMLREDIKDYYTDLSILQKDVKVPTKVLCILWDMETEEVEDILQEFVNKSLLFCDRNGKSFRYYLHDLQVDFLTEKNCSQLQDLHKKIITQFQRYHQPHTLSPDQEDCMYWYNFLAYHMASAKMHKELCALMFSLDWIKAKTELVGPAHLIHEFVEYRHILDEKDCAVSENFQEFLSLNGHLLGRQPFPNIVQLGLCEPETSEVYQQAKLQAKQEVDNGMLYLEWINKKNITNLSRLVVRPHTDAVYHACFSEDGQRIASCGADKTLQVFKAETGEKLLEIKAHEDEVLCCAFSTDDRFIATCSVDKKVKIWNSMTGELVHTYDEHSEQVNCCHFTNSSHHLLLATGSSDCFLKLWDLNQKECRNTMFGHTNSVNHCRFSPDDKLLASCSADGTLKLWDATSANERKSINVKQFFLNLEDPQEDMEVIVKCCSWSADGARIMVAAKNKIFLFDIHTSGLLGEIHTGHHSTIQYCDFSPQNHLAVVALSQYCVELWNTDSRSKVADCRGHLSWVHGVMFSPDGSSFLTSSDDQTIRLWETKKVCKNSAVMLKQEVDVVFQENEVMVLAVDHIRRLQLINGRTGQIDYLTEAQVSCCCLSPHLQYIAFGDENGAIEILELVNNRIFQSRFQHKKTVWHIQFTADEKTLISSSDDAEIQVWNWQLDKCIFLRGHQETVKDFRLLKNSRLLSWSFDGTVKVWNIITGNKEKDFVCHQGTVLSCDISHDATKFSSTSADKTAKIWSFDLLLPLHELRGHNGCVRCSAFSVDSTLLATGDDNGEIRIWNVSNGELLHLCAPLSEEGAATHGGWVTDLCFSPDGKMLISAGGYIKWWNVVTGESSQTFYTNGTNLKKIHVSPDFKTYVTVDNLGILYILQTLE
UniProt P99999: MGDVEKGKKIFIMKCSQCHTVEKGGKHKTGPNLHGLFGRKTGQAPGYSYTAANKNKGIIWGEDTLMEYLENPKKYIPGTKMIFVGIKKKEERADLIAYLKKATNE

Biological target: apoptotic protease-activating factor 1 (APAF1) (human (endogenous in BGC823)) (UniProt O14727)
Assay: co-IP; endogenous proteins in BGC823 cells after DDP at 0 or 1 µg/mL for 24 h; cells with ABL overexpression, or IGF2BP1 or METTL3 deficiency; which protein was precipitated not given

Substance: cytochrome c (Cyt c) (from UniProt P99999 1-105)
- binding: binds
